# Data from the supplement of paper PMC8728848.
# The other results are listed elsewhere or left out.
# B1: Awp3 (Candida glabrata), B4UN32 (protein)
# chain: MISFVTLLAILGLLSISWADQTVRSVAGDQRVTDPVIVGDNSILDYYGGSNYDFSNNFEIGRGTLYIGKESYFSSFQSAPTDVPNSFHLLIKNTNNLQNNGQFIIENIKRHANQCSNSSIQVFPINFQNDGEFEIISGGVEGRCCLPTSVIAPQNFLNNGKFYYKVLTDTGSIYSGSCMQNVDIGASTTTTVNNNLWEFTGSINAQINGAVSGAAQINLDGSNMFVNANTFSGQVVNLINGGSFLQTSDPLSNIVVINGLGTSDTGVTSIAVKGKGKSFTYNPSSGIVKLTTVEGKTYAYQIGCGYNTKKFITNNDSGASYESADNFFVLTYSEPYSPQTCQLENSSIFSSNFISTSTSSSSSSSSASSLPSSMSSSLPSSLSSSLSSSLSSSMSSSMSSLFIIPPPYTTTRSSGSSIIDTEIVSFYSTTDSPGHTITGTTTTTLYGPHTHSSVSTPSSSSESSTTSNSSIESSSLPHTSVSSTPESSITPSSNTISSSPTSDFSSVQSSSIMESSSVVASSSVINSSSIVDSSSSSASSLPSSMSSSLSSSMSSSLPSSMSSSLSSSLSSSLSSSMSSSMSSLFIIPPPYTTTRSSGSSIIDTEIVSFYSTTDSPGHTITGTTTTTLYGPHTHSSVSTPSSSSESSTTSNSSIESSSLPHTSVSSTPESSITPSSNTISSSPTSDFSSVQSSSIMESSSVVASSSVINSSSIVDSSSSSASSLPSSMPSSLPSSMSSSLSSSMSSSLSSSLSSSLSSSMSSSMSSLFIIPPPYTTTRSSGSSIIDTEIVSFYSTTDSPGHTITGTTTTTLYGPHTHSSVSTPSSSSESSTTSNSSIESSSLPHTSVSSTPESSITPSSNTISSSPTSDFSSVQSSSIMESSSVVASSSATQSSSVINSSSIVDSSSSSASSLPSSMPSSLPSSLSSSLSSSLSSSMSSSMSSLFIIPPPYTTTRSSGSSIIDTEIVSFYSTTDSPGHTITGTTTTTLYESSIYSSSSSTIQESELSNTSRTTMTSNSSVSISSTSSRSSFSNTKSSTIVISQSASLPDSKTDIILSTSSNIGYSSRSLLSDLGTSISDSDIHHSVLHSTESYSSNESGTNPFTSIASLSNFIPESSSHTSTALGSENSVISSDILTTMSHPVATNSGDKPTTPKRSEQVSTTMTSSGPTPDTSSFDTDGMSAYSRPEFTTNSLEVNKSSTSQLGNNKQTFSNLQLESTRPHSENEVDNNTRLLQSIQQSSTYGTNNVNPLSPTGSISIPLTEDGQGDNNNWNSPATNDLCTQISFNLTATTITVTDRITITDSIHDISSEVITSYIYQTIVDQKTVTQTVDGKSLANKMSSIPKPSSRSLIQPQPPVAIELQEGAASTSRVSLVSLFISIILVLL
# Columns and labels:
# Experiment in all cases: glycan array binding signal (z-score within array); higher = stronger binding
# Conditions in all cases: glycan notation: IUPAC condensed, linker removed
# [1] = biological target: Fuc(a1-2)Gal(b1-4)GlcNAc(b1-3)Gal(b1-4)GlcNAc(b1-3)Gal(b1-4)GlcNAc
# How it was run: (§1)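 The Consortium for Functional Glycomics database supplied 3228 glycan arrays, of which those lacking an available protein sequence were dropped. The binding signal, a within-array Z-score, was averaged across arrays of the same protein sequence and across linkers. Negative scores can be read as non-binding.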
# [2] = biological target: Fuc(a1-2)Gal(b1-4)GlcNAc(b1-3)GalNAc
# How it was run: as §1
# [3] = biological target: Fuc(a1-2)Gal(b1-4)GlcNAc(b1-3)[Fuc(a1-2)Gal(b1-4)GlcNAc(b1-6)]GalNAc
# How it was run: as §1
# [4] = biological target: Fuc(a1-2)Gal(b1-4)GlcNAc(b1-3)[Fuc(a1-3)[Gal(b1-4)]GlcNAc(b1-6)]Gal(b1-4)Glc
# How it was run: as §1
# [5] = biological target: Fuc(a1-2)Gal(b1-4)GlcNAc(b1-6)GalNAc
# How it was run: as §1
# [6] = biological target: Fuc(a1-2)Gal(b1-4)GlcNAc6S
# How it was run: as §1
# [7] = biological target: Fuc(a1-2)Gal(b1-4)[Fuc(a1-3)]GlcNAc
# How it was run: as §1
# [8] = biological target: Fuc(a1-2)Gal(b1-4)[Fuc(a1-3)]GlcNAc(b1-2)Man(a1-3)[Fuc(a1-2)Gal(b1-4)[Fuc(a1-3)]GlcNAc(b1-2)Man(a1-6)]Man(b1-4)GlcNAc(b1-4)[Fuc(a1-6)]GlcNAc
# How it was run: as §1
# [9] = biological target: Fuc(a1-2)Gal(b1-4)[Fuc(a1-3)]GlcNAc(b1-2)[Fuc(a1-2)Gal(b1-4)[Fuc(a1-3)]GlcNAc(b1-4)]Man(a1-3)[Fuc(a1-2)Gal(b1-4)[Fuc(a1-3)]GlcNAc(b1-2)Man(a1-6)]Man(b1-4)GlcNAc(b1-4)GlcNAc
# How it was run: as §1
# [10] = biological target: Fuc(a1-2)Gal(b1-4)[Fuc(a1-3)]GlcNAc(b1-3)Gal(b1-4)[Fuc(a1-3)]GlcNAc
# How it was run: as §1
# [11] = biological target: Fuc(a1-2)Gal(b1-4)[Fuc(a1-3)]GlcNAc(b1-3)Gal(b1-4)[Fuc(a1-3)]GlcNAc(b1-3)Gal(b1-4)[Fuc(a1-3)]GlcNAc
# How it was run: as §1
# [12] = biological target: Fuc(a1-2)Gal(b1-4)[Fuc(a1-3)]GlcNAc(b1-3)GalNAc
# How it was run: as §1
# [13] = biological target: Fuc(a1-2)Gal(b1-4)[Fuc(a1-3)]GlcNAc(b1-3)[Neu5Ac(a2-6)Gal(b1-4)GlcNAc(b1-6)]Gal(b1-4)Glc
# How it was run: as §1
# [14] = biological target: Fuc(a1-2)Gal3S(b1-4)GlcNAc
# How it was run: as §1
# [15] = biological target: Fuc(a1-2)Gal6S(b1-3)GlcNAc
# How it was run: as §1
# [16] = biological target: Fuc(a1-2)Gal6S(b1-3)GlcNAc6S
# How it was run: as §1
# [17] = biological target: Fuc(a1-2)Gal6S(b1-4)Glc
# How it was run: as §1
# [18] = biological target: Fuc(a1-2)Gal6S(b1-4)Glc6S
# How it was run: as §1
# [19] = biological target: Fuc(a1-2)[Gal(a1-3)]Gal
# How it was run: as §1
# [20] = biological target: Fuc(a1-2)[Gal(a1-3)]Gal(b1-3)GalNAc
# How it was run: as §1
# [21] = biological target: Fuc(a1-2)[Gal(a1-3)]Gal(b1-3)GalNAc(b1-3)Gal(a1-4)Gal(b1-4)Glc
# How it was run: as §1
# [22] = biological target: Fuc(a1-2)[Gal(a1-3)]Gal(b1-3)GlcNAc
# How it was run: as §1
# [23] = biological target: Fuc(a1-2)[Gal(a1-3)]Gal(b1-3)GlcNAc(b1-2)Man(a1-3)[Fuc(a1-2)[Gal(a1-3)]Gal(b1-3)GlcNAc(b1-2)Man(a1-6)]Man(b1-4)GlcNAc(b1-4)GlcNAc
# How it was run: as §1
# [24] = biological target: Fuc(a1-2)[Gal(a1-3)]Gal(b1-3)GlcNAc(b1-2)Man(a1-3)[Fuc(a1-2)[Gal(a1-3)]Gal(b1-3)GlcNAc(b1-2)Man(a1-6)]Man(b1-4)GlcNAc(b1-4)[Fuc(a1-6)]GlcNAc
# How it was run: as §1
# [25] = biological target: Fuc(a1-2)[Gal(a1-3)]Gal(b1-3)GlcNAc(b1-3)GalNAc
# How it was run: as §1
# [26] = biological target: Fuc(a1-2)[Gal(a1-3)]Gal(b1-3)GlcNAc(b1-6)GalNAc
# How it was run: as §1
# [27] = biological target: Fuc(a1-2)[Gal(a1-3)]Gal(b1-4)Glc
# How it was run: as §1
# [28] = biological target: Fuc(a1-2)[Gal(a1-3)]Gal(b1-4)GlcNAc
# How it was run: as §1
# [29] = biological target: Fuc(a1-2)[Gal(a1-3)]Gal(b1-4)GlcNAc(b1-2)Man
# How it was run: as §1
# [30] = biological target: Fuc(a1-2)[Gal(a1-3)]Gal(b1-4)GlcNAc(b1-2)Man(a1-3)[Fuc(a1-2)[Gal(a1-3)]Gal(b1-4)GlcNAc(b1-2)Man(a1-6)]Man(b1-4)GlcNAc(b1-4)GlcNAc
# How it was run: as §1
# [31] = biological target: Fuc(a1-2)[Gal(a1-3)]Gal(b1-4)GlcNAc(b1-2)Man(a1-3)[Fuc(a1-2)[Gal(a1-3)]Gal(b1-4)GlcNAc(b1-2)Man(a1-6)]Man(b1-4)GlcNAc(b1-4)[Fuc(a1-6)]GlcNAc
# How it was run: as §1
# [32] = biological target: Fuc(a1-2)[Gal(a1-3)]Gal(b1-4)GlcNAc(b1-3)GalNAc
# How it was run: as §1
# [33] = biological target: Fuc(a1-2)[Gal(a1-3)]Gal(b1-4)GlcNAc(b1-3)[Fuc(a1-2)[Gal(a1-3)]Gal(b1-4)GlcNAc(b1-6)]GalNAc
# How it was run: as §1
# [34] = biological target: Fuc(a1-2)[Gal(a1-3)]Gal(b1-4)GlcNAc(b1-6)GalNAc
# How it was run: as §1
# [35] = biological target: Fuc(a1-2)[Gal(a1-3)]Gal(b1-4)[Fuc(a1-3)]Glc
# How it was run: as §1
# [36] = biological target: Fuc(a1-2)[Gal(a1-3)]Gal(b1-4)[Fuc(a1-3)]GlcNAc
# How it was run: as §1
# [37] = biological target: Fuc(a1-2)[Gal(a1-3)]Gal(b1-4)[Fuc(a1-3)]GlcNAc(b1-3)GalNAc
# How it was run: as §1
# [38] = biological target: Fuc(a1-2)[Gal(a1-4)]Gal(b1-4)GlcNAc
# How it was run: as §1
# [39] = biological target: Fuc(a1-2)[GalNAc(a1-3)]Gal
# How it was run: as §1
# [40] = biological target: Fuc(a1-2)[GalNAc(a1-3)]Gal(b1-3)GalNAc(a1-3)[Fuc(a1-2)]Gal(b1-4)GlcNAc
# How it was run: as §1
# [41] = biological target: Fuc(a1-2)[GalNAc(a1-3)]Gal(b1-3)GalNAc(b1-3)Gal(a1-4)Gal(b1-4)Glc
# How it was run: as §1
# [42] = biological target: Fuc(a1-2)[GalNAc(a1-3)]Gal(b1-3)GlcNAc
# How it was run: as §1
# [43] = biological target: Fuc(a1-2)[GalNAc(a1-3)]Gal(b1-3)GlcNAc(b1-2)Man(a1-3)[Fuc(a1-2)[GalNAc(a1-3)]Gal(b1-3)GlcNAc(b1-2)Man(a1-6)]Man(b1-4)GlcNAc(b1-4)GlcNAc
# How it was run: as §1
# [44] = biological target: Fuc(a1-2)[GalNAc(a1-3)]Gal(b1-3)GlcNAc(b1-2)Man(a1-3)[Fuc(a1-2)[GalNAc(a1-3)]Gal(b1-3)GlcNAc(b1-2)Man(a1-6)]Man(b1-4)GlcNAc(b1-4)[Fuc(a1-6)]GlcNAc
# How it was run: as §1
# [45] = biological target: Fuc(a1-2)[GalNAc(a1-3)]Gal(b1-3)GlcNAc(b1-3)GalNAc
# How it was run: as §1
binder,measurement,setting,value
B1,glycan array binding signal (z-score),[1],-0.441
same,glycan array binding signal (z-score),[2],-0.891
same,glycan array binding signal (z-score),[3],-0.368
same,glycan array binding signal (z-score),[4],-0.125
same,glycan array binding signal (z-score),[5],0.16
same,glycan array binding signal (z-score),[6],-0.86
same,glycan array binding signal (z-score),[7],0.092
same,glycan array binding signal (z-score),[8],-0.693
same,glycan array binding signal (z-score),[9],0.778
same,glycan array binding signal (z-score),[10],1.7
same,glycan array binding signal (z-score),[11],1.19
same,glycan array binding signal (z-score),[12],-2.45
same,glycan array binding signal (z-score),[13],-1.1
same,glycan array binding signal (z-score),[14],-0.254
same,glycan array binding signal (z-score),[15],-0.826
same,glycan array binding signal (z-score),[16],-0.102
same,glycan array binding signal (z-score),[17],0.511
same,glycan array binding signal (z-score),[18],-1.42
same,glycan array binding signal (z-score),[19],1.33
same,glycan array binding signal (z-score),[20],-0.302
same,glycan array binding signal (z-score),[21],0.889
same,glycan array binding signal (z-score),[22],-0.69
same,glycan array binding signal (z-score),[23],0.356
same,glycan array binding signal (z-score),[24],0.41
same,glycan array binding signal (z-score),[25],-0.242
same,glycan array binding signal (z-score),[26],-0.159
same,glycan array binding signal (z-score),[27],1.5
same,glycan array binding signal (z-score),[28],-0.045
same,glycan array binding signal (z-score),[29],-0.874
same,glycan array binding signal (z-score),[30],2.45
same,glycan array binding signal (z-score),[31],-0.294
same,glycan array binding signal (z-score),[32],1.13
same,glycan array binding signal (z-score),[33],0.811
same,glycan array binding signal (z-score),[34],0.108
same,glycan array binding signal (z-score),[35],1.5
same,glycan array binding signal (z-score),[36],0.126
same,glycan array binding signal (z-score),[37],-1.29
same,glycan array binding signal (z-score),[38],0.301
same,glycan array binding signal (z-score),[39],-0.528
same,glycan array binding signal (z-score),[40],-0.35
same,glycan array binding signal (z-score),[41],2.28
same,glycan array binding signal (z-score),[42],-0.308
same,glycan array binding signal (z-score),[43],0.594
same,glycan array binding signal (z-score),[44],-0.338
same,glycan array binding signal (z-score),[45],-0.128

# Two entries from above in a different format:
binder | measurement | setting | value
B1 | glycan array binding signal (z-score) | [3] | -0.368
same | glycan array binding signal (z-score) | [4] | -0.125
